From PMC4858568
These are yes or no findings as the source states them, for the method shown. Binding can be weak; no strength is given. Tags and fused reporters may be left off the sequences shown.

Molecular target: GST-PARP-1 CAT domain
Assay: pull-down; recombinant His-C4orf27 incubated with GST-PARP-1 or GST-PARP-2 fragments, GST pull-down, immunoblotting; both purified

binding: binds
B1: Recombinant His-C4orf27 (protein, UniProt Q9NWY4 1-346)
chain: MVGGGGKRRPGGEGPQCEKTTDVKKSKFCEADVSSDLRKEVENHYKLSLPEDFYHFWKFCEELDPEKPSDSLSASLGLQLVGPYDILAGKHKTKKKSTGLNFNLHWRFYYDPPEFQTIIIGDNKTQYHMGYFRDSPDEFPVYVGINEAKKNCIIVPNGDNVFAAVKLFLTKKLREITDKKKINLLKNIDEKLTEAARELGYSLEQRTVKMKQRDKKVVTKTFHGAGLVVPVDKNDVGYRELPETDADLKRICKTIVEAASDEERLKAFAPIQEMMTFVQFANDECDYGMGLELGMDLFCYGSHYFHKVAGQLLPLAYNLLKRNLFAEIIEEHLANRSQENIDQLAA
